Measurements published in paper PMC11324294, “Peripheral gating of mechanosensation by glial diazepam binding inhibitor” (The Journal of Clinical Investigation, 2024).

Tested on: T1, GABAA receptors of presumed mechanosensitive rat DRG neurons
T1 construct: gene Gabra1
Conditions: read-out: EC50-control; without DBI; presumed mechanosensitive neurons (capsaicin-negative); -60 mV, room temperature; agonist

Q: For `NCCCC(=O)O` [GABA], which EC50 is on record?
A: Its EC50 is 67.6 ± 14.7 µM.
